Results: PubChem BioAssay AID445 (National Center for Advancing Translational Sciences (NCATS), 2006)
This is one part of the list. Further columns of the screen follow, without active or inactive calls. Most of these compounds were active or inconclusive in the main read-out, so they are no random draw. The note in brackets gives the kind of curve behind each potency; many fits are weak.

Assay: IkB Signaling
Conditions: ABC-DLBCL IkBa-CBG/CBR dual luciferase ratio (green luciferase fused to IkBa over red control in OCI-Ly3 lymphoma cells), 4 h; measured here: control luc red channel unless noted
Outline: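 Curves were fitted separately to fusion (green), unfused (red) and ratio luminescence, then classed by r2, magnitude and activity. Cells: OCI-Ly3, 4 h compound plus doxycycline at 37C; 10 uM MG-132 defined full response.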
With `Cc1ccc(-n2ncc(C(=O)NCc3ccco3)c2C2CCN(C(=O)OC(C)(C)C)CC2)c(C)c1` the AC50 was 25.1 µM [falling, single point].
For `Cc1ccc(-n2ncc3c(NC4CCCCCC4)ncnc32)cc1Cl`, the AC50 was 31.6 µM [falling, partial curve].
For `CCCCN(CCCNC(=O)c1cc(Nc2ccc(OC)c(OC)c2)nc2ccccc12)Cc1ccccc1`, the AC50 was 20 µM [falling, partial curve].
For `CCOC(=O)C1=C(C)N=C2SCCC(=O)N2C1c1ccc(OCc2ccccc2)cc1` (stereo not drawn), the AC50 was 15.8 µM [falling, partial curve].
For `O=C(Nc1ccc(OC(F)(F)F)cc1)c1cc2ccccn2n1`, the AC50 was 0.126 µM [rising, full curve].
With `O=c1nc2n(-c3ccccc3F)c3ccccc3cc-2c(=O)[nH]1` the AC50 was 1.26 µM [rising, partial curve].
With `CCOC(=O)c1c(NC(=O)c2ccc(S(=O)(=O)N(CC(C)C)CC(C)C)cc2)sc2c1CCN(C(=O)OCC)C2` the AC50 was 3.16 µM [falling, full curve, poor fit].
For `CCC(Sc1nc2ccccc2c(=O)n1CCc1ccc(OC)c(OC)c1)C(=O)N(CC)CC` (stereo not drawn), the AC50 was 25.1 µM [falling, single point].
With `CCOC(=O)c1cc(NC(=O)CSCCO)ccc1Cl` the AC50 was 10 µM [falling, partial curve].
In the case of `c1ccc(Nc2nn[nH]n2)cc1`, the AC50 is reported as 15.8 µM [falling, partial curve].
For `CCOC(=O)C1CCN(C(=O)c2ccc(-n3ccc4ccccc43)s2)CC1`, the AC50 was 0.794 µM [falling, full curve].
For `COc1ccc(Cn2ccn(Cc3cccc(OC)c3)c(=O)c2=O)cc1`, the AC50 was 7.94 µM [falling, partial curve].
In the case of `Cc1cccc(NC(=O)N2CC(=O)Nc3sc4c(c3C2c2ccccc2)CCCC4)c1C` (stereo not drawn), the AC50 is reported as 25.1 µM [falling, single point].
With `CCOc1cc(CNC(=O)c2ccc3c(c2)NC(=O)C2CCCCN32)cc(OCC)c1OCC` (stereo not drawn) the AC50 was 20 µM [falling, partial curve, poor fit].
In the case of `C[C@H](CCC(=O)O)[C@H]1CC[C@H]2[C@@H]3CC[C@@H]4C[C@H](O)CC[C@]4(C)[C@H]3CC[C@]12C`, the AC50 is reported as 15.8 µM [falling, partial curve].
In the case of `O=C1OC(NC(=O)c2ccccc2)C(n2cc(CO)nn2)=C1Cl` (stereo not drawn), the AC50 is reported as 20 µM [rising, partial curve] [measured here: IkB-luc green channel].
With `CC(=O)c1cccc(NC(=O)C2CCN(S(=O)(=O)c3ccc4c(c3)oc(=O)n4C)CC2)c1` the AC50 was 31.6 µM [falling, partial curve].
With `O=C(CSCc1ccccc1Cl)N1CCN(c2ccc(Cl)cc2)CC1` the AC50 was 39.8 µM [falling, single point].
With `COc1cc(C2CC(=O)Oc3c2c(=O)n(C)c2ccccc32)ccc1O` (stereo not drawn) the AC50 was 20 µM [falling, single point].
For `c1ccc(-c2noc(-c3cccc4ccccc34)n2)cc1`, the AC50 was 39.8 µM [falling, single point].
With `O=C(COc1ccccc1)Nc1ccc2nc(SCCOc3ccccc3)sc2c1` the AC50 was 1 µM [falling, partial curve].
For `CCc1ccccc1NC(=O)c1cnc(N2CCCCC2)c2ccccc12`, the AC50 was 39.8 µM [falling, single point].
For `COc1cc(C(=O)NCC(c2cccs2)S(=O)(=O)c2cccs2)cc(OC)c1OC` (stereo not drawn), the AC50 was 39.8 µM [falling, single point].
In the case of `COc1ccc(-c2c3c(=O)n(C)c(=O)n(C)c3c3n2-c2ccccc2NC3c2ccco2)cc1` (stereo not drawn), the AC50 is reported as 15.8 µM [falling, partial curve].
With `CCN1C(=O)c2ccccc2S(=O)c2ccc(C(=O)N3CCN(c4cc(Cl)ccc4C)CC3)cc21` (stereo not drawn) the AC50 was 10 µM [falling, partial curve].
In the case of `Cc1ccccc1CN1CCC(CNC(=O)c2c(C)oc3ncnc(N4CCCCC4)c23)CC1`, the AC50 is reported as 0.251 µM [rising, partial curve].
In the case of `CCC(Sc1nc(-c2ccccc2F)nc2c1Cc1c(CO)cnc(C)c1O2)C(=O)Nc1cc(C)ccc1C` (stereo not drawn), the AC50 is reported as 1 µM [rising, full curve].
In the case of `CCOc1ccc(CCNC(=O)C2=C(C)C(=O)OC23CCCCC3)cc1`, the AC50 is reported as 20 µM [falling, partial curve].
In the case of `CN(Cc1ccccc1)C(=O)c1ccc2c(c1)N(Cc1ccccc1Cl)C(=O)c1ccccc1S2`, the AC50 is reported as 10 µM [falling, partial curve].
For `COc1nnc(-c2ccc(N3CCCCC3)c(N)c2)c2ccccc12`, the AC50 was 20 µM [falling, partial curve].
In the case of `CCOc1ccccc1C1C(C(=O)N2CCCCC2)=C(C)Nc2nc3ccccc3n21` (stereo not drawn), the AC50 is reported as 25.1 µM [falling, partial curve].
For `CC(=O)c1cccc(-n2nnnc2SCC(=O)Nc2cccc(NC(=O)c3ccco3)c2)c1`, the AC50 was 15.8 µM [falling, partial curve].
With `O=C(CSc1nc2ccccc2c(=O)n1Cc1ccco1)c1ccccc1` the AC50 was 12.6 µM [falling, partial curve].
With `O=C(NCC1CCN(Cc2cccc(Cl)c2)CC1)Nc1cc(Cl)ccc1Cl` the AC50 was 15.8 µM [falling, partial curve].
For `COc1ccc(N(C)C(=O)CCn2cnc3onc(-c4ccc(F)cc4)c3c2=O)c(OC)c1`, the AC50 was 10 µM [falling, partial curve].
For `CCCCCS(=O)(=O)c1oc(-c2cccs2)nc1S(=O)(=O)c1ccc(C)cc1`, the AC50 was 12.6 µM [falling, partial curve].
For `Cc1cccnc1NCc1ccc(O)c2ncccc12`, the AC50 was 5.01 µM [rising, partial curve] [measured here: IkB-luc green channel].
For `CCCCN(CCCC)C(=O)c1cc2c(=O)n3cccc(C)c3nc2s1`, the AC50 was 39.8 µM [falling, single point].
For `COc1ccc(S(=O)(=O)Nc2ccc(C(F)(F)F)cc2)cc1OC`, the AC50 was 39.8 µM [falling, single point].
With `COc1ccc(C2CC(=O)N(CC(=O)Nc3cc(C)ccc3C)c3ccccc3S2)cc1` (stereo not drawn) the AC50 was 31.6 µM [falling, single point].
With `Brc1ccc2ncnc(NCc3ccco3)c2c1` the AC50 was 1.58 µM [falling, full curve, poor fit].
With `Cc1cccc(OCC(=O)N(Cc2cccs2)c2ccc(Cl)cc2)c1C` the AC50 was 5.01 µM [falling, partial curve].
With `O=C(Cn1c(C(=O)NCc2ccco2)cc2sccc21)c1ccccc1` the AC50 was 31.6 µM [falling, partial curve].
In the case of `O=C1c2oc3ccccc3c(=O)c2C(c2ccccc2)N1Cc1ccc2c(c1)OCO2` (stereo not drawn), the AC50 is reported as 39.8 µM [rising, partial curve, poor fit].
With `CN1C(=O)c2ccccc2Sc2ccc(NC(=O)c3ccccc3F)cc21` the AC50 was 31.6 µM [falling, single point].
For `CCOC(=O)c1cccc(NC(=O)[C@@H](c2ccccc2)N2Cc3ccccc3C2=O)c1`, the AC50 was 31.6 µM [falling, single point].
For `CCN1C(=O)c2ccccc2Sc2ccc(C(=O)NCCCN(CC(C)C)CC(C)C)cc21`, the AC50 was 39.8 µM [falling, partial curve].
With `O=S(=O)(Nc1nc2ccccc2nc1Nc1ccc2c(c1)OCCO2)c1cccs1` the AC50 was 3.16 µM [falling, partial curve].
For `COc1cccc(CNC(=O)c2cc3c(s2)-c2ccccc2OC3)c1`, the AC50 was 7.94 µM [falling, partial curve].
For `COc1ccc(-n2c(=O)c3c4c(sc3n(Cc3ccc(F)cc3)c2=O)CCCC4)c(OC)c1`, the AC50 was 10 µM [falling, partial curve].
With `COc1ccccc1NC(=O)C1=C(C)Nc2ncnn2C1c1ccccc1C(=O)O` (stereo not drawn) the AC50 was 25.1 µM [falling, single point].
For `CC(C)COC(=O)N(C)c1ccc(C(O)(C(F)(F)F)C(F)(F)F)cc1`, the AC50 was 25.1 µM [falling, single point].
With `Cc1ccc(OCC(=O)Nc2nnc(SCc3cc(=O)c4ccccc4[nH]3)s2)cc1` the AC50 was 25.1 µM [falling, partial curve].
In the case of `Cc1ccc(CNC(=O)c2ccc(Cn3nc(C)c(Cl)c3C)o2)cc1`, the AC50 is reported as 12.6 µM [falling, partial curve].
For `CCOc1ccccc1C(=O)Nc1ccc2nc(N(CC)CC)cc(C)c2c1`, the AC50 was 7.94 µM [falling, single point].
With `CC(CCc1ccccc1)NC(=O)C1CCCN(C(=O)c2cc3sccc3n2C)C1` (stereo not drawn) the AC50 was 12.6 µM [falling, partial curve].
With `Cc1cc(N2CCCCC2)nc2ccc(NC(=O)c3cccc(Cl)c3)cc12` the AC50 was 31.6 µM [falling, single point].
With `CCOC(=O)C1CCN(c2ncnc3c2oc2ccccc23)CC1` the AC50 was 25.1 µM [falling, single point].
In the case of `Cc1cc2n(n1)C(c1cc(C(C)(C)C)c(O)cc1O)Nc1ccccc1-2` (stereo not drawn), the AC50 is reported as 31.6 µM [falling, single point].
For `CSc1cccc(NC(=O)CN2C(=O)COc3ccc(Cl)cc32)c1`, the AC50 was 31.6 µM [falling, partial curve].
For `Cc1ccc(-c2nc3sc(CCNC(=O)c4ccc(Br)o4)c(C)n3n2)cc1`, the AC50 was 25.1 µM [falling, partial curve].
In the case of `COc1ccc(NC(=O)COc2ccc(-c3nn(C)c(=O)c4ccccc34)cc2)cc1`, the AC50 is reported as 0.794 µM [rising, full curve].
In the case of `COc1ccccc1-c1nnc(SCC(=O)c2ccc(Cl)cc2)n1-c1ccccc1`, the AC50 is reported as 10 µM [falling, partial curve].
